A: 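Whole-cell growth test on Mycobacterium tuberculosis, read after 4 days in a medium based on cholesterol and the lipid DPPC; the read-out is not stated. Tested at 50 µM. The record gives no direction; compounds that gave an IC50 in retests scored well above the rest, so higher reads as more growth inhibition. Size under these conditions: about 69,000 compounds, about 370 of them at 50% or above in at least one test.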
B: 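Growth of Mycobacterium tuberculosis over 3 days (7H9 medium with glucose and tyloxapol); the read-out is not stated. Tested at 50 µM. Higher reads as more growth inhibition (inferred: compounds with an IC50 in retests scored well above the rest). About 69,000 compounds were tested under these conditions; 1.1% (about 760) showed 50% or more at least once.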

Results are given as percent effect.
The record does not define 0% and 100%; most values in the screen are far below 50% and negative numbers occur (in some assays of this library far below -100).
This is an unselected part of the compounds tested.
Two or more numbers in one place are separate tests of the same structure; such repeats can differ widely.

{"compound": "CCS(=O)(=O)NCc1nc(C)cc(N2CCCC2)n1", "A": 8.655, "B": -14.52}
{"compound": "O=C(O)C(F)(F)F.O=C(O)C(F)(F)F.c1ccc(CN2CCC3(CC2)CCN(c2ccccn2)C3)nc1", "A": -1.125, "B": -5.684}
{"compound": "CN(C)S(=O)(=O)c1ccc(CN2CCC(C(N)=O)CC2)o1", "A": 16.02, "B": "12 and 83.69"}
{"compound": "Cc1nc(-c2ccc(C(=O)O)cc2)cc(C2CCN(C(C)C)CC2)n1", "A": -29.21, "B": -59.51}
{"compound": "Cc1n[nH]c(C2CN(C(=O)CCOCC(F)(F)F)CCO2)n1", "stereo": "centres undefined", "A": -0.4504, "B": 11.06}
{"compound": "Cc1noc(C)c1CNC(=O)Nc1ccc(N2CCSCC2)cc1", "A": -8.761, "B": -6.531}
{"compound": "COc1cccc2c1N(Cc1nc3c(cnn3C)c(=O)[nH]1)CCC2", "A": -0.203, "B": 2.221}
{"compound": "CC(c1ccc(C(F)(F)F)cc1)N1CCN(CCS(C)(=O)=O)CC1", "stereo": "centres undefined", "A": "-9.615 and -4.463", "B": 8.915}
{"compound": "CC(=O)N1CC(=O)N(c2ccccc2)CC12CCN(Cc1ccoc1)C2.O=C(O)C(F)(F)F", "stereo": "centres undefined", "A": "-1.378 and -0.05099", "B": -6.112}
{"compound": "Cc1cccc(C2(CNC(=O)C(C)S(C)(=O)=O)CCCC2)c1", "stereo": "centres undefined", "A": -7.168, "B": 12.21}
{"compound": "[H][C@@]12CN(Cc3cccc(CN4CCOCC4)c3)C[C@]1(C(=O)O)CNC2=O", "A": -2.74, "B": -16.51}
{"compound": "CC(C(=O)N(C)Cc1ccc(Br)o1)n1cccn1", "stereo": "centres undefined", "A": -6.481, "B": -3.752}
{"compound": "CC(NC(=O)CCc1cccs1)c1nnc2n1CCCCC2", "stereo": "centres undefined", "A": -24.06, "B": "-38.34 and -8.789"}
{"compound": "Cn1cc2c(n1)C(CNCC1CCOCC1)OCC2.O=C(O)C(F)(F)F.O=C(O)C(F)(F)F", "stereo": "centres undefined", "A": -2.72, "B": "-14.73 and -57.7"}
{"compound": "COc1ccc(Cc2ncc3c(n2)CN(C(=O)CN(C)C)C3)cc1", "A": 6.395, "B": 37.05}
{"compound": "CCS(=O)(=O)N1CCC2(CC1)CN(c1cncnc1)C(=O)CO2", "A": -7.175, "B": 16.04}
{"compound": "O=C(O)C(F)(F)F.O=S(=O)(C1CC1)N1CCOC2(CCCN(Cc3ccccn3)C2)C1", "stereo": "centres undefined", "A": 0.5708, "B": 23.79}
{"compound": "Cc1cc(N2CCCN(c3nc(C)nc(C)c3C)CC2)ccn1", "A": 13.14, "B": 5.305}
{"compound": "CC(C)c1nc(C2CCCN2c2ncc(C(N)=O)cc2Cl)no1", "stereo": "centres undefined", "A": -11.24, "B": "19.12 and 2.835"}
{"compound": "CCS(=O)(=O)N1CCc2ncnc(OC)c2CC1", "A": 11.67, "B": "12.56 and -4.965"}
{"compound": "CCOCC(O)CN1CCN(C(=O)c2cccc(F)c2)CC1", "stereo": "centres undefined", "A": 2.536, "B": -2.463}
{"compound": "O=c1cc(N2CCNCC2)cnn1CCCn1cccn1", "A": -7.109, "B": 12.07}
{"compound": "CCS(=O)(=O)N1CCCC2(CCCN2C(=O)c2cn(C)cn2)C1", "stereo": "centres undefined", "A": 4.476, "B": "-0.06131 and 12.27"}
{"compound": "CCOCCCNC(=O)CN(c1cccc(F)c1)S(C)(=O)=O", "A": -31.32, "B": -6.407}
{"compound": "CCOc1ccccc1N1CCN(C(=O)c2cc[nH]n2)CC1", "A": -15.24, "B": "-14.35 and 2.518"}
{"compound": "CCC(C)CN1CCC(n2cc(C3CCCC3)nn2)CC1", "stereo": "centres undefined", "A": "6.802 and 22.48", "B": 6.741}
{"compound": "O=C1CCNc2ncc(-c3cccc(Cl)c3)cc2CN1C1CC1", "A": 17.82, "B": 56.97}
{"compound": "[H][C@]12CCN(Cc3ccco3)[C@@]1([H])CC[C@H](COCc1ccncc1)O2", "A": -10.86, "B": -17.3}
{"compound": "CNC(=O)c1cccc(CCNC(=O)N2CCc3ccccc3C2)c1", "A": "-7.375 and -4.992", "B": "-4.317 and -19.37"}
{"compound": "CCOCC1CN(C(=O)c2cscn2)Cc2cn(C)nc21.O=C(O)C(F)(F)F", "stereo": "centres undefined", "A": -15.94, "B": 14.89}
{"compound": "CCN(Cc1ccccc1)c1ncnc2c(C)nn(CC)c12", "A": -2.027, "B": 28.87}
{"compound": "CN1CC(NC(=O)Cc2csc(C(C)(C)C)n2)CCC1=O", "stereo": "centres undefined", "A": -19.82, "B": 15.72}
{"compound": "CN(C)S(=O)(=O)N1CCCC1c1cccc(-n2ccnc2)n1", "stereo": "centres undefined", "A": -1.638, "B": 33.58}
{"compound": "CN(C)S(=O)(=O)c1cccc(NC(=O)Cc2ccon2)c1", "A": 1.613, "B": -0.9792}
{"compound": "CN1CCC(N(C)CCC(=O)N2CCC(OCc3ccccc3)CC2)C1", "stereo": "centres undefined", "A": -18.62, "B": -14.06}
{"compound": "CNC(=O)C1(CCCc2ccccn2)CN(Cc2coc(C)n2)C1", "A": -1.846, "B": 12.78}
{"compound": "Cc1cn2c(=O)c(-c3ccnc(NC4CCOCC4)n3)cnc2s1", "A": 1.176, "B": -5.042}
{"compound": "CCc1nc2n(n1)CC(NCc1nc(-c3cccnc3)no1)CC2", "stereo": "centres undefined", "A": 6.778, "B": -17.19}

The first 4 entries again:

{"compound": "CCS(=O)(=O)NCc1nc(C)cc(N2CCCC2)n1", "A": 8.655, "B": -14.52}
{"compound": "O=C(O)C(F)(F)F.O=C(O)C(F)(F)F.c1ccc(CN2CCC3(CC2)CCN(c2ccccn2)C3)nc1", "A": -1.125, "B": -5.684}
{"compound": "CN(C)S(=O)(=O)c1ccc(CN2CCC(C(N)=O)CC2)o1", "A": 16.02, "B": "12 and 83.69"}
{"compound": "Cc1nc(-c2ccc(C(=O)O)cc2)cc(C2CCN(C(C)C)CC2)n1", "A": -29.21, "B": -59.51}

The values are deposited in ChEMBL (CHEMBL3988442, “University of Dundee, Small-Polar-MMV Screening Library” (2021)).